Data reported in US20030105043A1, “Apoptosis-inducing ribozymes” (priority 2000, published 2003).
The name of at least one read-out is uncertain.

Assays:
[1] = system: rat MT-I cRNA; experiment: ribozyme enzymatic kinetics under single turnover conditions, rat MT-I cRNA; assay type: biochemical; details: 10 nM substrate, 1-128 nM ribozyme, 37° C., 1 hour
[2] = system: rat MT-II cRNA; experiment: ribozyme enzymatic kinetics under single turnover conditions, rat MT-II cRNA; assay type: biochemical; details: 10 nM substrate, 1-128 nM ribozyme, 37° C., 1 hour

| Substance | catalytic efficiency (kcat/Km) on rat MT-I cRNA [1] | catalytic efficiency (kcat/Km) on rat MT-II cRNA [2] |
| --- | --- | --- |
| Rz1-2: hammerhead ribozyme, SEQ ID NO:6, designed to cleave mouse and rat MT-I mRNA (GCGCCUUUGCACUGAUGAGUCCGUGAGGACGAAACACAGCCCU; listed as RNA, chemistry not given here) | 678 M⁻¹ s⁻¹ | – |
| Rz4-9: hammerhead ribozyme, SEQ ID NO:7, designed to cleave MT-II mRNA (CCUCUUUGCACUGAUGAGUCCGUGAGGACGAAAUGCAGCCCU; listed as RNA, chemistry not fully specified) | – | 372 M⁻¹ s⁻¹ |
